Measured values as given in patent US20160054314A1.
No constants are given. Whether binding was seen depends on the method and setting. Some results given as binding are weak or reduced against the parent protein; the word gives no strength.

Molecular target: BirA-biotinylated fd-tet-APpIII phage virion (biotin acceptor peptide fused in front of pIII) (bacteriophage fd) (UniProt P03661)
Test: western blot of BirA-treated phage probed with SAV-HRP

binding: binds
Substance: streptavidin conjugated with horseradish peroxidase (SAV-HRP) (from UniProt P22629 37-163)
